In PubChem BioAssay AID588590 (National Center for Advancing Translational Sciences (NCATS), 2011):
Out of some 390,000 compounds screened, about 4,000 (1%) were called active. Inconclusive results, whose numbers are uncertain, are shown with a selection of clear calls. Calls follow the shape of the dose curve; as a rule, active = well fitted inhibition curve with a large enough effect; inconclusive = small, poorly fitted or top-dose-only effect, or another doubt; inactive = no such curve, though single readings can be large or run the other way. A potency beside an inconclusive call is a rough fit, not a confirmed value.

Amino acid sequences for entries named in this document (tags omitted). A change or cut given only in a name is not applied to a line headed by its entry.
UniProt Q9UNA4: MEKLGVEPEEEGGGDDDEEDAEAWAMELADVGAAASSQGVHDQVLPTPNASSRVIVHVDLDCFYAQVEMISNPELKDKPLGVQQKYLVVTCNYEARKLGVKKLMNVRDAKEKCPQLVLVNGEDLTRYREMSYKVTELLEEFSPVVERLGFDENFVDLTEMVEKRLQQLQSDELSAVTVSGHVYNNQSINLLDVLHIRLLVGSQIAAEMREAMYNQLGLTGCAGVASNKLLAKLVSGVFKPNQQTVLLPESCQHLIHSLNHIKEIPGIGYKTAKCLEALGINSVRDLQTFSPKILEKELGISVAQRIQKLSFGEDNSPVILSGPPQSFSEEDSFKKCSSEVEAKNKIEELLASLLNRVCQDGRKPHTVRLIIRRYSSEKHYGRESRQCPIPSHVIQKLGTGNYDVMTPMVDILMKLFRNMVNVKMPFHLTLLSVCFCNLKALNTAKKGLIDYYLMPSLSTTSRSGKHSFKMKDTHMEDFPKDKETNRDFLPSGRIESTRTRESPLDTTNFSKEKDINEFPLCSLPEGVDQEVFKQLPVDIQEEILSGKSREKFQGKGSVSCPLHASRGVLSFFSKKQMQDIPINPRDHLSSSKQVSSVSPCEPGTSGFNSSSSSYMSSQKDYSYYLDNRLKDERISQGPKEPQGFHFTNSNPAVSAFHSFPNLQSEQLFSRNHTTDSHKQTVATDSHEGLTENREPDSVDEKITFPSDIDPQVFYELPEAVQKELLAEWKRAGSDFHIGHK

Target: DNA polymerase iota (Homo sapiens) (UniProt Q9UNA4)
Experiment: qHTS for Inhibitors of Polymerase Iota
Conditions: Pol iota fluorescent replication assay, 10 min; series mostly up to 115 µM
In short: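 Pol iota at 10 nM preincubated 15 min with compounds at room temperature; reaction started with fluorescent substrate, 50 nM final. Fluorescence read kinetically at 0 and 10 min; buffer-only wells as negative control.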
Potency is read from the fitted curve at half-maximal effect.

Row | Structure (SMILES) | Potency
1 | COc1ccc(/C(O)=C2/C(=O)C(=O)N(c3ccccn3)C2c2cccc(Cl)c2)cc1 (centres undefined) | inconclusive: 22.4 µM [inhibitor, partial curve, poor fit]
2 | O=C(Oc1coc(CSc2nnc(NC(=O)C3CC3)s2)cc1=O)c1ccccc1 | inconclusive: 112 µM [inhibitor, partial curve, poor fit]
3 | Cc1ccc(C(=O)C2=C(O)C(=O)N(Cc3ccco3)C2c2cccc(Cl)c2)o1 (centres undefined) | inactive
4 | CC(C)CC(NC(=O)OC(C)(C)C)c1cn([C@@H](Cc2ccc(O)cc2)C(=O)N2CCN(C(=O)OC(C)(C)C)CC2)nn1 (some centres undefined) | inactive
5 | O=C(O)c1ccc(COc2ccccc2C=C2C(=O)c3ccccc3C2=O)cc1 | inconclusive: 25.1 µM [inhibitor, single point]
6 | Cc1[nH]c2ccccc2c1SCCNC(=O)c1ccc(Br)o1 | inconclusive: 44.7 µM [inhibitor, partial curve, poor fit]
7 | O=C1OC(/C=C/c2ccccc2)=NC/1=C/c1ccco1 | inconclusive: 10 µM [inhibitor, full curve, poor fit]
8 | Cc1ccc(Cl)cc1N1CCN(CCCNC(=O)C2COc3ccccc3C2)CC1 (centres undefined) | inactive
9 | CN(C(=S)Nc1cccnc1)c1ccc(O)cc1 | inconclusive: 8.91 µM [inhibitor, full curve, poor fit]
10 | O=[N+]([O-])c1ccc(S(=O)(=O)N2CCN(c3ccc(N4CCOCC4)nn3)CC2)cc1 | inconclusive: 100 µM [inhibitor, single point]
11 | COc1cccc(-c2nn(C)c3sc(C(=O)NCc4ccco4)cc23)c1 | inconclusive: 50.1 µM [inhibitor, partial curve, poor fit]
12 | COc1ccccc1CCNC(=O)Cc1c(C)c2cc3c(C)coc3cc2oc1=O | inactive
13 | Cc1nc(N)sc1C(=O)Nc1ccccc1 | inconclusive: 79.4 µM [inhibitor, partial curve]
14 | CC1CCCCN1C(=O)c1cc2c(=O)n3ccccc3nc2s1 (centres undefined) | inactive
15 | O=C1N=C(N2CCN(c3ccccc3)CC2)S/C1=C/c1cccs1 | inactive
16 | COc1ccc2c(c1OC)C(=O)N1C2SC[C@H]1C(=O)NCCC(C)C (some centres undefined) | inconclusive: 39.8 µM [inhibitor, full curve, poor fit]
17 | COc1cccc(C2SCC(=O)N2c2ccc(Cl)cc2)c1OC (centres undefined) | inactive
18 | CC(=O)c1ccc(NC(=O)CN(C)S(=O)(=O)c2cc3c(cc2Cl)NC(=O)CO3)cc1 | inconclusive: 89.1 µM [inhibitor, single point]
19 | O=C(CSc1ccc(Br)cc1)Nc1cccc(S(=O)(=O)N2CCOCC2)c1 | inconclusive: 12.6 µM [inhibitor, partial curve, poor fit]

Three entries from above, sorted by count of non-hydrogen atoms, smallest number first:
Row | Structure (SMILES) | Potency
16 | COc1ccc2c(c1OC)C(=O)N1C2SC[C@H]1C(=O)NCCC(C)C (some centres undefined) | inconclusive: 39.8 µM [inhibitor, full curve, poor fit]
11 | COc1cccc(-c2nn(C)c3sc(C(=O)NCc4ccco4)cc23)c1 | inconclusive: 50.1 µM [inhibitor, partial curve, poor fit]
10 | O=[N+]([O-])c1ccc(S(=O)(=O)N2CCN(c3ccc(N4CCOCC4)nn3)CC2)cc1 | inconclusive: 100 µM [inhibitor, single point]
